From the supplement of paper PMC10849652
This is one part of the list.

The chains behind the UniProt entries cited, without tags or fusion partners. Where a name states a change or a piece, a line headed by the entry shows the natural chain unless it says otherwise.
UniProt Q96CG3: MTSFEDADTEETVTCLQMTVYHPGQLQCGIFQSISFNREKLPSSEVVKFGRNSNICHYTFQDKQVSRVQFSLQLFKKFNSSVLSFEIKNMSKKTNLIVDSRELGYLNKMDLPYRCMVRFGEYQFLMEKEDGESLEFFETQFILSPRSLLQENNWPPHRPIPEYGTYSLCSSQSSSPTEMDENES
UniProt Q6NUS6: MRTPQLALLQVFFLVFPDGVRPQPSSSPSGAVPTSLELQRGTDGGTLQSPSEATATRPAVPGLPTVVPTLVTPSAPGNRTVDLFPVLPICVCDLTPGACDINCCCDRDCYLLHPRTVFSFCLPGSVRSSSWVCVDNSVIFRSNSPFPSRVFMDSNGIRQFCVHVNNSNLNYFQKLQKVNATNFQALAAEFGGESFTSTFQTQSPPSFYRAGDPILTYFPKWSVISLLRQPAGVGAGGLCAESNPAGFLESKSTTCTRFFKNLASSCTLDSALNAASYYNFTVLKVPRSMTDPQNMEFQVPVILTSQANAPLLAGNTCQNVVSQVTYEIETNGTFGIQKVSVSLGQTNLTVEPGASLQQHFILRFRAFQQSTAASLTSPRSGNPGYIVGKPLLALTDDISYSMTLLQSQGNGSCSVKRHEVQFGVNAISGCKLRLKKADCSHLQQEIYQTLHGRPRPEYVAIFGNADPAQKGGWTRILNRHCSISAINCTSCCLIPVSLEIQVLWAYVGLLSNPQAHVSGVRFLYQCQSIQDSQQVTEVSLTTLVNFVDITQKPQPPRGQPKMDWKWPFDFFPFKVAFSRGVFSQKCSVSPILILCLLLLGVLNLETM
UniProt Q5JUR7: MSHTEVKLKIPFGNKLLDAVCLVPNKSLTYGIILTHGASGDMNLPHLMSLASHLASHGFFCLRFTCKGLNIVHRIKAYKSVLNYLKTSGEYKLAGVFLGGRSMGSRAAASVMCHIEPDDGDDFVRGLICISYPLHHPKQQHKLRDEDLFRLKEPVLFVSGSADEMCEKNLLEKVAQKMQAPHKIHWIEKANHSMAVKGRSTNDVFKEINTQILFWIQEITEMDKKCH
UniProt P20226, whole entry, looked up: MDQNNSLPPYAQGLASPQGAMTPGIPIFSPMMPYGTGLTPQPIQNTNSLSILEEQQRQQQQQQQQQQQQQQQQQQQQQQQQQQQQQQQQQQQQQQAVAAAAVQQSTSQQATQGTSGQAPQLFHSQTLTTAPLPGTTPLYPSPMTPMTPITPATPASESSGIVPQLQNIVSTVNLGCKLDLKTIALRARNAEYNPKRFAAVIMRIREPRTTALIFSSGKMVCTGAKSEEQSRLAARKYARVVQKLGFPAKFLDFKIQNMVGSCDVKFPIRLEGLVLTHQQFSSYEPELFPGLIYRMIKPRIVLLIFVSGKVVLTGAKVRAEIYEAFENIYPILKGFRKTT
UniProt Q13488, whole entry, looked up: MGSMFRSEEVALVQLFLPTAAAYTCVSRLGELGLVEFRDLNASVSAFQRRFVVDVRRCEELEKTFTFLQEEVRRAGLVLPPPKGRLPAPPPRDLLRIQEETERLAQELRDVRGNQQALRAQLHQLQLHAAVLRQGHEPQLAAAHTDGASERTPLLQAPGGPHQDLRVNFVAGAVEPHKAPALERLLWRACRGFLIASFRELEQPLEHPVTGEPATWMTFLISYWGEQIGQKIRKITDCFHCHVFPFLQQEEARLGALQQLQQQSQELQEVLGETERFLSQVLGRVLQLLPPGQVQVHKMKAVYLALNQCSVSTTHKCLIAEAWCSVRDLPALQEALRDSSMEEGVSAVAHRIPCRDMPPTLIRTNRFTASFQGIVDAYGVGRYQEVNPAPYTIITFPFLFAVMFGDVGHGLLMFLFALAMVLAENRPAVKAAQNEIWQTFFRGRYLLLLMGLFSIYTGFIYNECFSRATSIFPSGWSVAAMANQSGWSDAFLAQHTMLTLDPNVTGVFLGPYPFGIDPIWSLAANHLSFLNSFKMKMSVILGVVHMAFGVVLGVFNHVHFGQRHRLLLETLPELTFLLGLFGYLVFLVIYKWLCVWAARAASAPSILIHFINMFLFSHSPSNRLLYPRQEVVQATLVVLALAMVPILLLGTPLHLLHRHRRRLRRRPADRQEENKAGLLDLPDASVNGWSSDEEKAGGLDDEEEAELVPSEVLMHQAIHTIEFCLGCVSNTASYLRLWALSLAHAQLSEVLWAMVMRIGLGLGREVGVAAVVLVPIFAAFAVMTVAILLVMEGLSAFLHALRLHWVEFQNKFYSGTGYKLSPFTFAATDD
UniProt Q9BQ70: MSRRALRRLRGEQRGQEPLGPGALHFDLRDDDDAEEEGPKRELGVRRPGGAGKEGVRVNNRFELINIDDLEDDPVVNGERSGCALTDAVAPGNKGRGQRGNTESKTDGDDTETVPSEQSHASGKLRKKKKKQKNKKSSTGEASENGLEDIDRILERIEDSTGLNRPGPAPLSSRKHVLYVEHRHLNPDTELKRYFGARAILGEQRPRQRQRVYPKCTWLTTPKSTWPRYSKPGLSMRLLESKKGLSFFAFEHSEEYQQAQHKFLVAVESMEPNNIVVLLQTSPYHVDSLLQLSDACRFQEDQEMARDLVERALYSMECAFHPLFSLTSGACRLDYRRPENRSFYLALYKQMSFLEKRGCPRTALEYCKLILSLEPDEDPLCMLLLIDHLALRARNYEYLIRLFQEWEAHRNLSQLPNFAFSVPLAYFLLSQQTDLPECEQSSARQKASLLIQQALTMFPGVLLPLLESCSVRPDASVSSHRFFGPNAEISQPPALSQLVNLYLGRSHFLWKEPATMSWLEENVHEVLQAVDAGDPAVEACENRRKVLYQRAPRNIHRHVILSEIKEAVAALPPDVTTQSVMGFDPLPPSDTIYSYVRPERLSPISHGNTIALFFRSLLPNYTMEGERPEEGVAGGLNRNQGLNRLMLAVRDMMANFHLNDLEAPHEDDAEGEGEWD
UniProt Q14188: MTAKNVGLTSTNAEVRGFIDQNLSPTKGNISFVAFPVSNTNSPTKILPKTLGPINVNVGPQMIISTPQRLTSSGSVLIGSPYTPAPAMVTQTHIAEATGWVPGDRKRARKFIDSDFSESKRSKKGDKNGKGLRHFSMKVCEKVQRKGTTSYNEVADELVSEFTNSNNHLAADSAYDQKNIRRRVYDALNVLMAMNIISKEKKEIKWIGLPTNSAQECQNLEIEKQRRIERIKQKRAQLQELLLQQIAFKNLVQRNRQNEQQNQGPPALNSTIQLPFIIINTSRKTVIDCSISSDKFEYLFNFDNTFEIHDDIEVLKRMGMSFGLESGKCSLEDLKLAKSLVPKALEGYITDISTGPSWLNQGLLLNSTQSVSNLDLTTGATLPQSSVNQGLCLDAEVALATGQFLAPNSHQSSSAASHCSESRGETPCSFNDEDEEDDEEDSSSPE
UniProt Q9P0N9: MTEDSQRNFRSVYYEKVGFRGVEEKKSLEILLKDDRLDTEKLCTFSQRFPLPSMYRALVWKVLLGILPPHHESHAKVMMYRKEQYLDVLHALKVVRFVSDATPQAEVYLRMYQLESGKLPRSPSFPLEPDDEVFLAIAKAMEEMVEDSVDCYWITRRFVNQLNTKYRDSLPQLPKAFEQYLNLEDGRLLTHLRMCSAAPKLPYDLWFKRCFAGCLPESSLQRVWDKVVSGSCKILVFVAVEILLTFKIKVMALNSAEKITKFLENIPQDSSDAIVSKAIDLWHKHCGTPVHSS
UniProt Q8NHU6: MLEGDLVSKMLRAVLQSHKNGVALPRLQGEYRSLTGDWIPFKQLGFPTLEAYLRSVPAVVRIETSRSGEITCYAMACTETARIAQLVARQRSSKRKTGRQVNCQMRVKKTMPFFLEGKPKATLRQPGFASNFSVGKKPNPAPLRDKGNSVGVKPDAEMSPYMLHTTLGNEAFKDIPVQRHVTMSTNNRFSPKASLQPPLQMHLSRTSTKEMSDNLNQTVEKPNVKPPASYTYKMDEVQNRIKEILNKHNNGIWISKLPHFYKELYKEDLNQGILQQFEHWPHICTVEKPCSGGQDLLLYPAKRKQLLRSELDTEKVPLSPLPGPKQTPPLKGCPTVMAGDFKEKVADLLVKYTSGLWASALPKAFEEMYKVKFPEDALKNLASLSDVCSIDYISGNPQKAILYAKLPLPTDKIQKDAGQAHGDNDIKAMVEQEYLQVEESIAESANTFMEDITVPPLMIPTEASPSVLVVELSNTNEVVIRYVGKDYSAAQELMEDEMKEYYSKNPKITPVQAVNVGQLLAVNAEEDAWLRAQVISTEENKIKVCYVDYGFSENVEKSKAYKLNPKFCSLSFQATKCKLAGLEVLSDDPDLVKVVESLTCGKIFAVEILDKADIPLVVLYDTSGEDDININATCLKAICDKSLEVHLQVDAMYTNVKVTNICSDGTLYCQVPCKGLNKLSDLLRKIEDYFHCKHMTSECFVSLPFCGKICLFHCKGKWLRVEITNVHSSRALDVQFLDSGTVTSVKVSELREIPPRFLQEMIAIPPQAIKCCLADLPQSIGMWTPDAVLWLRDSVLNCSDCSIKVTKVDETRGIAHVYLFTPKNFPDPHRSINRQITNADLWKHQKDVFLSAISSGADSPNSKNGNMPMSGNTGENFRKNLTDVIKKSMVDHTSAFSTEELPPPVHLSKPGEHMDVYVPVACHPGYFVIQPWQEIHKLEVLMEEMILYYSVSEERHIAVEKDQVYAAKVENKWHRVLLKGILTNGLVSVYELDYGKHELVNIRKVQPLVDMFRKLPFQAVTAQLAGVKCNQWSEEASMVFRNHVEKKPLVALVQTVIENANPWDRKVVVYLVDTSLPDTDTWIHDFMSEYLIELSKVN
UniProt Q9H7E2: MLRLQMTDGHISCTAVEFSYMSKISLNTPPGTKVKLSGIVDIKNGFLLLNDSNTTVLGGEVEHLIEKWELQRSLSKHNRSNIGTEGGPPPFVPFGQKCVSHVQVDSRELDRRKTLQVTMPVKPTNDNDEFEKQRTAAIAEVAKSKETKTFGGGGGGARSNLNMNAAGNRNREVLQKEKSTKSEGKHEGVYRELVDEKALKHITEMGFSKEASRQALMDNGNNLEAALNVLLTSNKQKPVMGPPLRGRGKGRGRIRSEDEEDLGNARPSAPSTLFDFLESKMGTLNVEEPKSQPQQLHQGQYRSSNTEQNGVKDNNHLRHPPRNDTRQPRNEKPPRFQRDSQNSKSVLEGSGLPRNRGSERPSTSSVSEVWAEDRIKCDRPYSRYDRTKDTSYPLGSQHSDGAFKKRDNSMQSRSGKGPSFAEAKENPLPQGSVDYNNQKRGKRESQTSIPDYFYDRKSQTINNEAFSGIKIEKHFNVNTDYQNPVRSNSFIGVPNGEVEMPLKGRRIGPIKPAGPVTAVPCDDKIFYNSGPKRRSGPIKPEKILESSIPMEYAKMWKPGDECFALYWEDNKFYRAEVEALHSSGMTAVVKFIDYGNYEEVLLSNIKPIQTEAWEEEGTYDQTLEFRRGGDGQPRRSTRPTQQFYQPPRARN
UniProt Q9BYX2: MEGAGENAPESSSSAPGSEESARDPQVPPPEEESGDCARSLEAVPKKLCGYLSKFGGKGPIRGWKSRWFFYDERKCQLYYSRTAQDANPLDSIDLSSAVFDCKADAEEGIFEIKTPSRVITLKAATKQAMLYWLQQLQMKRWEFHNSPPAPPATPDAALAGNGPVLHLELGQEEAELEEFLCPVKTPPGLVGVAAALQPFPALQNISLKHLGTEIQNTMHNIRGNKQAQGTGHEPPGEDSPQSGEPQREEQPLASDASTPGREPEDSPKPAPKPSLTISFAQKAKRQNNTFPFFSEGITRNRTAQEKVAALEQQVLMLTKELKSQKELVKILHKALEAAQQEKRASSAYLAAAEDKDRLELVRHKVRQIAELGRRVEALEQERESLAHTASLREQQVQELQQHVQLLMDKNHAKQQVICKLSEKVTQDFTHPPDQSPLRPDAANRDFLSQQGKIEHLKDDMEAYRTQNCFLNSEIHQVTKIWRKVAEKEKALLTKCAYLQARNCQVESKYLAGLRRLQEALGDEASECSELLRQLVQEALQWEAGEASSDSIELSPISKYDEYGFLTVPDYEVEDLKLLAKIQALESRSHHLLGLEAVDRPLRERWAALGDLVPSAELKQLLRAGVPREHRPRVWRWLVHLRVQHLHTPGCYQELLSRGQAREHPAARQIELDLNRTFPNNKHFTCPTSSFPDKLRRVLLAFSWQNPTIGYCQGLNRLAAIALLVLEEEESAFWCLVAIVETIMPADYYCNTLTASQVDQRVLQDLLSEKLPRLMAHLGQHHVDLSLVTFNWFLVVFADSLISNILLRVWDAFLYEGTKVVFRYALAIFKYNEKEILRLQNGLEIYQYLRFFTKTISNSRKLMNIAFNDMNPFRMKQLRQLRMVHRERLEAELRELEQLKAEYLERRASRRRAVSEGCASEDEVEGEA
UniProt Q96EI5: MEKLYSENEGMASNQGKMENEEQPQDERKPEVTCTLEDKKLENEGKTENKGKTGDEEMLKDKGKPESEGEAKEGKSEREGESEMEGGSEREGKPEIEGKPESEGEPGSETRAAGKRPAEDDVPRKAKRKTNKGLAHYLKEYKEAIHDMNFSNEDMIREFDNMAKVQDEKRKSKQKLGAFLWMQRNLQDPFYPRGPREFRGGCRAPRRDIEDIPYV
UniProt Q9UHQ7: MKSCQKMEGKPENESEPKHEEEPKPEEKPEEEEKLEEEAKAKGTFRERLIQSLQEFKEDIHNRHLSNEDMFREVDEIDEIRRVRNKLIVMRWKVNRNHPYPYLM

What follows are targets tested with CCCCN(Cc1ccc(C(=O)NO)cc1)C(=O)Nc1ccccc1 [Nexturastat A] (assay: log2 fold change, soluble protein after heating vs DMSO (PISA); higher = thermal stabilisation; K562 cells, 10 uM, 30 min; active = over 0.2 and 3.5 SD of the protein, either way, in both replicates (recomputed)).
In short: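 Soluble protein was defined as the supernatant after 21,000xg for 90 min. It came from K562 cells at 2×10^6 cells/mL given 10 μM compound for 30 min, heated in aliquots for 3 min across 48°C-58°C, pooled, and extracted in PBS with 0.5% NP-40 at 4°C, and was quantified by TMTpro 16plex LC-MS/MS with equalised channel sums. Thermal stability against control samples, from duplicates, is reported as log2 fold change.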

Q: For TIFA (UniProt Q96CG3), which log2 fold change is on record?
A: Its log2 fold change is inactive: 0.001.

Q: Which log2 fold change does the source give for THEMIS2 (UniProt Q5TEJ8) here?
A: Its log2 fold change is inactive: -0.116.

Q: How did the log2 fold change turn out when TCTN3 (UniProt Q6NUS6) was run?
A: The log2 fold change was inactive: 0.028.

Q: For TEX30 (UniProt Q5JUR7), which log2 fold change is on record?
A: Its log2 fold change is inactive: 0.009.

Q: TBP (UniProt P20226) was tested. Which log2 fold change did it give?
A: The log2 fold change was inactive: 0.163.

Q: TCIRG1 (UniProt Q13488) was tested. Which log2 fold change did it give?
A: Its log2 fold change is inactive: 0.287.

Q: With TENM4 (UniProt Q6N022) as the target, how does the log2 fold change read?
A: The log2 fold change was inactive: -0.156.

Q: Which log2 fold change does the source give for TCF25 (UniProt Q9BQ70) here?
A: The log2 fold change was inactive: 0.14.

Q: Which log2 fold change does the source give for TCAF2 (UniProt A6NFQ2) here?
A: The log2 fold change was inactive: -0.078.

Q: How did the log2 fold change turn out when TFDP2 (UniProt Q14188) was run?
A: The log2 fold change was inactive: 0.088.

Q: How did the log2 fold change turn out when TBC1D7 (UniProt Q9P0N9) was run?
A: Its log2 fold change is inactive: 0.018.

Q: Which log2 fold change does the source give for TDRD7 (UniProt Q8NHU6) here?
A: The log2 fold change was inactive: -0.463.

Q: For TDRD3 isoform 3 (UniProt Q9H7E2), which log2 fold change is on record?
A: The log2 fold change was inactive: 0.127.

Q: For TCF20 (UniProt Q9UGU0), which log2 fold change is on record?
A: Its log2 fold change is inactive: 0.134.

Q: With TBC1D2 (UniProt Q9BYX2) as the target, how does the log2 fold change read?
A: Its log2 fold change is active: 0.618.

Q: For TCEAL4 isoform 2 (UniProt Q96EI5), which log2 fold change is on record?
A: Its log2 fold change is inactive: 0.012.

Q: For TCEAL9 (UniProt Q9UHQ7), which log2 fold change is on record?
A: The log2 fold change was inactive: 0.576.
